Measured values reported in patent US20230322706A1, “NOVEL BIARYL DERIVATIVE USEFUL AS DIACYLGLYCEROL ACYLTRANSFERASE 2 INHIBITOR, AND USE THEREOF” (LG CHEM, LTD., priority 2020, published 2023).
Structures were worked out from names or drawings and are uncertain.

Sequences of proteins named here, by UniProt entry; tags and fusion partners are left off.
UniProt Q96PD7, whole entry: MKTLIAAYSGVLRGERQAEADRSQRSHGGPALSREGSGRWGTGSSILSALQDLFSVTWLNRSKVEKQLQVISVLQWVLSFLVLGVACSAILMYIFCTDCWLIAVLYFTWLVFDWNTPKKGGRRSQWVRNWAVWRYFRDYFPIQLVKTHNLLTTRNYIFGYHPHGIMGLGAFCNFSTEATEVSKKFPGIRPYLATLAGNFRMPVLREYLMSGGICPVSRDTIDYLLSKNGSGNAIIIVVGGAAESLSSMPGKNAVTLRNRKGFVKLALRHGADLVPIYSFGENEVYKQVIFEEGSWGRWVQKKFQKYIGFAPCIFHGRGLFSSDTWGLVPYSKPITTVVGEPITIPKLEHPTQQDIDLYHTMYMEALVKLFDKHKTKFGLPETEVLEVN

Target: human DGAT2 (Homo sapiens (Human), UniProt Q96PD7)
Assay: Measurement of inhibitory effect against DGAT2 enzyme activity (SPA, Phospholipid FlashPlate, [14C]-TG production)
Settings: recombinant human DGAT2 membrane protein from Sf-21 cells; inhibition of [14C]-TG production; 37° C.

## CCOc1cccnc1Oc1cccc(-c2cncc(NC(=O)Cc3ccc(OC(C)(C)C(=O)O)cc3)n2)c1
  IC50: 250 nM
